Taken from: PubChem BioAssay AID1259254 (NCATS, 2017)
Test: 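Gene knock-downs that lead to re-replication, shown by excess G2 DNA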 (primary screen). System: human HCT116 colorectal cancer cells. Knock-down reagent: single siRNA against human genes. Time to read-out: 3 days. Measured: 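Imaged Hoechst DNA stain sorts each cell into a cycle phase by DNA amount; per plate, G2 fraction set to 0% for non-targeting and 100% for GMNN siRNA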. Direction: G2 robust z-score and G2 cells, % of GMNN control: higher = more G2 cells, more excess DNA replication; raw share of cells in G2: higher = larger share of cells with G2 DNA content. Hit rule: 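Active siRNAs have a G2 robust z of 5 or more median absolute deviations over the median, which in these data means about 38% or higher of GMNN control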.
The whole screen tested about 59,000 reagents; below is a random part of them. Of all reagents, about 1,550 (2.6%) got an active call. 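G2 share is only a proxy for re-replication; each gene was hit by three separate siRNAs, and active genes were retested.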 The raw values are shown without normalisation. Not given: the amount of reagent.

Gene	PubChem SID	G2 robust z-score	G2 cells, % of GMNN control	raw share of cells in G2 (%)	activity call
PPM1B (protein phosphatase, Mg2+/Mn2+ dependent 1B)	SID160714748	7.38	54.9	20.8	active
PPM1B (protein phosphatase, Mg2+/Mn2+ dependent 1B)	SID160731478	-1.42	-7	2.52	inactive
PPM1B (protein phosphatase, Mg2+/Mn2+ dependent 1B)	SID160731480	-0.557	-0.951	3.21	inactive
STAC (SH3 and cysteine rich domain)	SID160717427	1.67	14.7	11.7	inactive
STAC (SH3 and cysteine rich domain)	SID160717428	0.202	4.39	5.64	inactive
STAC (SH3 and cysteine rich domain)	SID160717429	-0.1	2.26	4.15	inactive
LY6E (lymphocyte antigen 6 family member E)	SID160723912	1.45	13.1	9.41	inactive
LY6E (lymphocyte antigen 6 family member E)	SID160723915	0.185	4.27	4.9	inactive
LY6E (lymphocyte antigen 6 family member E)	SID160776791	-0.885	-3.26	3.59	inactive
OVOS1BP (ovostatin 1B, pseudogene)	SID160726797	-0.0154	2.86	4.24	inactive
OVOS1BP (ovostatin 1B, pseudogene)	SID160726798	-0.701	-1.97	2.34	inactive
OVOS1BP (ovostatin 1B, pseudogene)	SID160772064	1.54	13.8	9.22	inactive
IDS (iduronate 2-sulfatase)	SID160775542	0.987	9.91	8.65	inactive
IDS (iduronate 2-sulfatase)	SID160775543	2.51	20.6	13.5	inactive
IDS (iduronate 2-sulfatase)	SID160775545	-1.1	-4.79	2.45	inactive
INSYN2A (inhibitory synaptic factor 2A)	SID160768737	-0.304	0.829	3.95	inactive
INSYN2A (inhibitory synaptic factor 2A)	SID160768738	0.358	5.49	5.25	inactive
INSYN2A (inhibitory synaptic factor 2A)	SID160768739	-0.15	1.91	3.7	inactive
SCGB1D4 (secretoglobin family 1D member 4)	SID160733359	-0.156	1.87	5.57	inactive
SCGB1D4 (secretoglobin family 1D member 4)	SID160767541	-0.218	1.43	4.33	inactive
SCGB1D4 (secretoglobin family 1D member 4)	SID160767542	-0.874	-3.18	2.25	inactive
ITGB1 (integrin subunit beta 1)	SID160775996	-0.866	-3.13	3.06	inactive
ITGB1 (integrin subunit beta 1)	SID160775997	-1.17	-5.29	3.12	inactive
ITGB1 (integrin subunit beta 1)	SID160775998	1.63	14.4	11.2	inactive
PPIAP66 (peptidylprolyl isomerase A pseudogene 66)	SID160725693	-0.89	-3.29	2.09	inactive
PPIAP66 (peptidylprolyl isomerase A pseudogene 66)	SID160733854	3.44	27.2	11.1	inactive
PPIAP66 (peptidylprolyl isomerase A pseudogene 66)	SID160769066	-0.776	-2.49	2.69	inactive
KLRB1 (killer cell lectin like receptor B1)	SID160731170	-1.07	-4.56	3.95	inactive
KLRB1 (killer cell lectin like receptor B1)	SID160776306	-0.532	-0.778	3.92	inactive
KLRB1 (killer cell lectin like receptor B1)	SID160776307	-0.12	2.12	5.82	inactive
PKHD1L1 (PKHD1 like 1)	SID160735204	0.17	4.17	4.25	inactive
PKHD1L1 (PKHD1 like 1)	SID160754420	-0.769	-2.44	3.05	inactive
PKHD1L1 (PKHD1 like 1)	SID160754422	-0.176	1.73	3.54	inactive
STIM2 (stromal interaction molecule 2)	SID160746429	-0.595	-1.22	3.87	inactive
STIM2 (stromal interaction molecule 2)	SID160746430	-0.776	-2.49	3.27	inactive
STIM2 (stromal interaction molecule 2)	SID160746431	1.4	12.8	7.08	inactive
MTF1 (metal regulatory transcription factor 1)	SID160777522	0.565	6.94	5.48	inactive
MTF1 (metal regulatory transcription factor 1)	SID160777523	-0.233	1.32	5.87	inactive
MTF1 (metal regulatory transcription factor 1)	SID160777524	1.06	10.4	9.61	inactive
LZTS1 (leucine zipper tumor suppressor 1)	SID160730131	-0.158	1.86	5.71	inactive
LZTS1 (leucine zipper tumor suppressor 1)	SID160730132	2.59	21.2	12.9	inactive
LZTS1 (leucine zipper tumor suppressor 1)	SID160730133	-0.422	-0.00273	3.17	inactive
RFX3 (regulatory factor X3)	SID160715847	-0.605	-1.29	2.95	inactive
RFX3 (regulatory factor X3)	SID160715848	0.0972	3.65	6.56	inactive
RFX3 (regulatory factor X3)	SID160715849	-0.411	0.0783	3.14	inactive
COX8A (cytochrome c oxidase subunit 8A)	SID160723712	0.822	8.75	8.19	inactive
COX8A (cytochrome c oxidase subunit 8A)	SID160730607	0.857	9	7.2	inactive
COX8A (cytochrome c oxidase subunit 8A)	SID160747069	0.313	5.17	6.81	inactive
OR10J1 (olfactory receptor family 10 subfamily J member 1)	SID160732867	-0.52	-0.693	3.06	inactive
OR10J1 (olfactory receptor family 10 subfamily J member 1)	SID160737985	0.994	9.96	8.16	inactive
OR10J1 (olfactory receptor family 10 subfamily J member 1)	SID160737986	2.12	17.9	11.7	inactive
SNTA1 (syntrophin alpha 1)	SID160717149	4.43	34.1	17.2	inactive
SNTA1 (syntrophin alpha 1)	SID160717151	0.0836	3.56	5.77	inactive
SNTA1 (syntrophin alpha 1)	SID160717152	-1.32	-6.35	1.86	inactive
ZNF680P1 (ZNF680 pseudogene 1)	SID160726870	0.542	6.78	5.5	inactive
ZNF680P1 (ZNF680 pseudogene 1)	SID160726871	0.103	3.7	4.55	inactive
ZNF680P1 (ZNF680 pseudogene 1)	SID160772281	0.0153	3.07	5.11	inactive
COTL1 (coactosin like F-actin binding protein 1)	SID160732765	-0.193	1.61	3.86	inactive
COTL1 (coactosin like F-actin binding protein 1)	SID160736216	0.462	6.21	6.75	inactive
COTL1 (coactosin like F-actin binding protein 1)	SID160736217	0.79	8.52	7.63	inactive
ARAP3 (ArfGAP with RhoGAP domain, ankyrin repeat and PH domain 3)	SID160747743	-0.629	-1.46	5.04	inactive
ARAP3 (ArfGAP with RhoGAP domain, ankyrin repeat and PH domain 3)	SID160747744	-0.26	1.14	4.75	inactive
ARAP3 (ArfGAP with RhoGAP domain, ankyrin repeat and PH domain 3)	SID160747745	-0.34	0.572	4.43	inactive
DHX9-AS1 (DHX9 antisense RNA 1)	SID160770123	1.56	13.9	9.03	inactive
DHX9-AS1 (DHX9 antisense RNA 1)	SID160770124	0.463	6.23	5.53	inactive
DHX9-AS1 (DHX9 antisense RNA 1)	SID160770125	0.454	6.16	5	inactive
RBM39 (RNA binding motif protein 39)	SID160722560	0.766	8.35	8.36	inactive
RBM39 (RNA binding motif protein 39)	SID160722561	1.64	14.5	10.6	inactive
RBM39 (RNA binding motif protein 39)	SID160722562	-0.0325	2.74	4.13	inactive
SDC3 (syndecan 3)	SID160722770	-0.44	-0.127	5.27	inactive
SDC3 (syndecan 3)	SID160722771	0.727	8.08	7.32	inactive
SDC3 (syndecan 3)	SID160735244	0.377	5.62	5.45	inactive
CCL13 (C-C motif chemokine ligand 13)	SID160716458	0.464	6.23	6.02	inactive
CCL13 (C-C motif chemokine ligand 13)	SID160716459	-0.12	2.12	6.4	inactive
CCL13 (C-C motif chemokine ligand 13)	SID160716460	0.164	4.12	5.96	inactive
OR8U1 (olfactory receptor family 8 subfamily U member 1)	SID160761239	0.00308	2.99	4.66	inactive
OR8U1 (olfactory receptor family 8 subfamily U member 1)	SID160761240	6.69	50	20.3	active
OR8U1 (olfactory receptor family 8 subfamily U member 1)	SID160761241	1.65	14.6	7.85	inactive
MUC12 (mucin 12, cell surface associated)	SID160724936	2.91	23.4	15.9	inactive
MUC12 (mucin 12, cell surface associated)	SID160724940	-0.412	0.0676	3.97	inactive
MUC12 (mucin 12, cell surface associated)	SID160724950	-0.439	-0.119	3.36	inactive
PPP1R42 (protein phosphatase 1 regulatory subunit 42)	SID160763802	0.538	6.76	6.1	inactive
PPP1R42 (protein phosphatase 1 regulatory subunit 42)	SID160763803	-0.725	-2.13	2.22	inactive
PPP1R42 (protein phosphatase 1 regulatory subunit 42)	SID160763804	4.29	33.1	13.3	inactive
PMS2 (PMS1 homolog 2, mismatch repair system component)	SID160714555	0.413	5.87	7	inactive
PMS2 (PMS1 homolog 2, mismatch repair system component)	SID160714556	0.817	8.71	7.04	inactive
PMS2 (PMS1 homolog 2, mismatch repair system component)	SID160714557	-0.814	-2.76	3.63	inactive

4 entries from above, reduced to “G2 cells, % of GMNN control”:
RBM39 (RNA binding motif protein 39) [SID160722560]	8.35
RBM39 (RNA binding motif protein 39) [SID160722561]	14.5
RBM39 (RNA binding motif protein 39) [SID160722562]	2.74
SDC3 (syndecan 3) [SID160722770]	-0.127
